The values below come from PMC7455122.

Amino acid sequences for entries named in this document (tags omitted). Residues count along the entry.
UniProt P98161, residues 24-4303: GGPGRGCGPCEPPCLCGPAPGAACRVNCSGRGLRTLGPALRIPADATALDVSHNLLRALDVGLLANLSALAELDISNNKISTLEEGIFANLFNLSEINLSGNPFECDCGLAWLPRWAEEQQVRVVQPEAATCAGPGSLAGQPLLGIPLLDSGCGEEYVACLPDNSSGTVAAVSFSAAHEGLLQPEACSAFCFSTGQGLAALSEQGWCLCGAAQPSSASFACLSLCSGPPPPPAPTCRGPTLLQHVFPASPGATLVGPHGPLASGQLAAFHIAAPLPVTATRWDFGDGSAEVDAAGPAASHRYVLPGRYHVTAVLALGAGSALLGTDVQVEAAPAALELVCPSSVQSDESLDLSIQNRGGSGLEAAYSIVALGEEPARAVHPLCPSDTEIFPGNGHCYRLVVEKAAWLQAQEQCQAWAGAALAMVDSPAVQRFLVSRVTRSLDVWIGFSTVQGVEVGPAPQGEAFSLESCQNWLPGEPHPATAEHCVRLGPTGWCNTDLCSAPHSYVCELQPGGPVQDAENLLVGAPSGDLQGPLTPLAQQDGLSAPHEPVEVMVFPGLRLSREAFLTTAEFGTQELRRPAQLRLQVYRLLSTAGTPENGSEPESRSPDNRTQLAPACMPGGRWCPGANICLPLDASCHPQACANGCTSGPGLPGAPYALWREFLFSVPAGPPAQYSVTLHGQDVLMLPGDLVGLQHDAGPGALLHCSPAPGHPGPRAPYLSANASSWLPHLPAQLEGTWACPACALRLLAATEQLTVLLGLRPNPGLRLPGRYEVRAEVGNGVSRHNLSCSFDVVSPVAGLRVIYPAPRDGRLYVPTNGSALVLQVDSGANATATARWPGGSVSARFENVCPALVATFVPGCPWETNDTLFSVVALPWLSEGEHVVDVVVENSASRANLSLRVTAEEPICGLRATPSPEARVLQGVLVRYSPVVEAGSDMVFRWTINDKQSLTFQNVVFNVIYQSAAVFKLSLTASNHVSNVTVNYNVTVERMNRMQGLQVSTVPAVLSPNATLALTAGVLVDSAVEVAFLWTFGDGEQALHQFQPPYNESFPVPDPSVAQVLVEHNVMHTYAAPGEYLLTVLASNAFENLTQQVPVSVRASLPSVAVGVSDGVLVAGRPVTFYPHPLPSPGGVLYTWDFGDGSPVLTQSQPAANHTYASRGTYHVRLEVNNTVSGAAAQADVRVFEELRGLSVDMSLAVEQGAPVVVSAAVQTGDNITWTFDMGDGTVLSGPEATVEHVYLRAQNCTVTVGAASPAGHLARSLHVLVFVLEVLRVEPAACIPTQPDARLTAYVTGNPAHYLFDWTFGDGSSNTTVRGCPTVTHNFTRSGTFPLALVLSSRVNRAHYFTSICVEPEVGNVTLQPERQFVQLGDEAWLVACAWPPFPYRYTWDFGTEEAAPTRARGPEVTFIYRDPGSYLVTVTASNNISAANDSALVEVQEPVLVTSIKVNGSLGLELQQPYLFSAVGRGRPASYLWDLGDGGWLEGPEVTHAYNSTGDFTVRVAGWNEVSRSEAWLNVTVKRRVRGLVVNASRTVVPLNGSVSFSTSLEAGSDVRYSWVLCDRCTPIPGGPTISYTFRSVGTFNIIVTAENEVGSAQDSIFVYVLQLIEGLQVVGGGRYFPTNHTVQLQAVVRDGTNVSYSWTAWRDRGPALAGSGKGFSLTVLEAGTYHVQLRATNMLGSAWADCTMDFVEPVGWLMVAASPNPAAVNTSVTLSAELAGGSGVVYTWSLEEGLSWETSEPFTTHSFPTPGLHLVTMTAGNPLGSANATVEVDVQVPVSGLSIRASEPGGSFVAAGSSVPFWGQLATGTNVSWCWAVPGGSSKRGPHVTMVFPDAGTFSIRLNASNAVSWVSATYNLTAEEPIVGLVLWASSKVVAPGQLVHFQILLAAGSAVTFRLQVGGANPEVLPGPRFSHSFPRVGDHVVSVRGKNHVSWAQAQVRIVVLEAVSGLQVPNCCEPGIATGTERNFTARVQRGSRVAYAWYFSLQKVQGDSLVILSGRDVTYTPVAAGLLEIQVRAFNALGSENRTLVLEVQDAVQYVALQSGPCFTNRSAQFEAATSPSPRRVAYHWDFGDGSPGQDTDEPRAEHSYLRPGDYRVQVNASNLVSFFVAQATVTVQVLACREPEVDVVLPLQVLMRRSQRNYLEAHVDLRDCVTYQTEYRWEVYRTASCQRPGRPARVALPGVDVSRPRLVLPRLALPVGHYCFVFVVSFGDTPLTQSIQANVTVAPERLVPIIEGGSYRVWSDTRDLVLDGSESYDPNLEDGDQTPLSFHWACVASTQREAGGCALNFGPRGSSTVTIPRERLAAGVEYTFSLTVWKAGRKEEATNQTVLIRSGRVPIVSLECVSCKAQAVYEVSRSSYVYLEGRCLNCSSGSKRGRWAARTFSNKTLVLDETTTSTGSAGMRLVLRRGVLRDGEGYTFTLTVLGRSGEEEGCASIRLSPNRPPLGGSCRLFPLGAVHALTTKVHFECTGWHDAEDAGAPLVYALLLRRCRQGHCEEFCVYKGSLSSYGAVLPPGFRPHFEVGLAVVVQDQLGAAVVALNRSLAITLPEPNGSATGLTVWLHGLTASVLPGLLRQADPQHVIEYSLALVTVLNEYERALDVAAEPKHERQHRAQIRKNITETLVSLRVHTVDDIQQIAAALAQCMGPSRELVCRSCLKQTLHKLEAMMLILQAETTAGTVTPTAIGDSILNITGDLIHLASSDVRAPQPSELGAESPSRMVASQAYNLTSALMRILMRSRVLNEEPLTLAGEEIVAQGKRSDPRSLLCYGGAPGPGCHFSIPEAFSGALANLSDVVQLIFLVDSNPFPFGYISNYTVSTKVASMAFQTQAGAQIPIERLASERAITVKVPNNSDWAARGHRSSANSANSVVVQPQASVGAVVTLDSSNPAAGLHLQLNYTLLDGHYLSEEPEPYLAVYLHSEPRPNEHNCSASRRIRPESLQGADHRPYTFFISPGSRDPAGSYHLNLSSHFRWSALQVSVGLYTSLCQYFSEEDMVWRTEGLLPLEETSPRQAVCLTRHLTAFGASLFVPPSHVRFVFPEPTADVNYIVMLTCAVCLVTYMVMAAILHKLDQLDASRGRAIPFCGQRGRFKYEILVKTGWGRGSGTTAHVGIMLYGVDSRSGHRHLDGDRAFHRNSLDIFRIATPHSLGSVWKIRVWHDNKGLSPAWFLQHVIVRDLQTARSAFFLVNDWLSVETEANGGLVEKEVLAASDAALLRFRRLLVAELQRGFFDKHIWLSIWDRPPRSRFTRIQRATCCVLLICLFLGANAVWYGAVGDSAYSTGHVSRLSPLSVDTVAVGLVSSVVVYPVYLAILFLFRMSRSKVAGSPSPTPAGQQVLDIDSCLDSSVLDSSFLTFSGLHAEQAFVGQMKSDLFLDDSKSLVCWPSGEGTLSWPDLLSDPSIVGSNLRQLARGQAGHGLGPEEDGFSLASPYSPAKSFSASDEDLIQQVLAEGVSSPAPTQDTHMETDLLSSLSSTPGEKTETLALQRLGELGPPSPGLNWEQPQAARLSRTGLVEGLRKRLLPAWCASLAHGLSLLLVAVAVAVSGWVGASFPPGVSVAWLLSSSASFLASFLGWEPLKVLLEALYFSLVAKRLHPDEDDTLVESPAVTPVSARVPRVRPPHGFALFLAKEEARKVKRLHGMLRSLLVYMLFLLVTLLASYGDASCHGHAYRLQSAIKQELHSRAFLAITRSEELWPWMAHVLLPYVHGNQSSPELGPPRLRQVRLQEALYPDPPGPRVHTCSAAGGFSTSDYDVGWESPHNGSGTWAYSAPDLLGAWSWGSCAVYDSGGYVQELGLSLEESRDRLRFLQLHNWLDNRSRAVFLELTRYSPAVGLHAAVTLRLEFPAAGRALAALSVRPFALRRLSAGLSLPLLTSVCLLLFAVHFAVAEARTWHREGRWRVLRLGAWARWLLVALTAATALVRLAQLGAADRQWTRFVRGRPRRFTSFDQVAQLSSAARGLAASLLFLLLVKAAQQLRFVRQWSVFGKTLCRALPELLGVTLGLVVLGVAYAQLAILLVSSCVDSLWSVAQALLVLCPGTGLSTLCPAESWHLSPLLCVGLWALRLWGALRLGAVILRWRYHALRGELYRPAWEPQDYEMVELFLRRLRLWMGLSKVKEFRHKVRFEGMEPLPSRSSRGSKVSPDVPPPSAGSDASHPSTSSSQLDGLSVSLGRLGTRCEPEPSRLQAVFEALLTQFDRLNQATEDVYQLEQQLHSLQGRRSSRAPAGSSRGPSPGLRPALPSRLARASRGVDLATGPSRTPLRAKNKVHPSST

These are yes or no findings as the source states them, for the method shown. Binding seen in cells or lysates may run through a third protein. Some entries that bind do so weakly or less than the wild type. Sequences can lack the tags named with a protein.

This experiment addresses full-length V5-PC1 (polycystin-1) (UniProt P98161). The experiment can be described thus: co-IP; FLAG-ARHGAP35 and V5-PC1 coexpressed in HEK293 cells; lysis buffer 50 mM Tris, 0.14 M NaCl, 1% Triton X-100, 0.5% NP40; which protein was precipitated is not told.

B1: full-length FLAG-ARHGAP35 (protein, UniProt Q9NRY4 1-1499)
chain: MMMARKQDVRIPTYNISVVGLSGTEKEKGQCGIGKSCLCNRFVRPSADEFHLDHTSVLSTSDFGGRVVNNDHFLYWGEVSRSLEDCVECKMHIVEQTEFIDDQTFQPHRSTALQPYIKRAAATKLASAEKLMYFCTDQLGLEQDFEQKQMPDGKLLVDGFLLGIDVSRGMNRNFDDQLKFVSNLYNQLAKTKKPIVVVLTKCDEGVERYIRDAHTFALSKKNLQVVETSARSNVNVDLAFSTLVQLIDKSRGKTKIIPYFEALKQQSQQIATAKDKYEWLVSRIVKNHNENWLSVSRKMQASPEYQDYVYLEGTQKAKKLFLQHIHRLKHEHIERRRKLYLAALPLAFEALIPNLDEIDHLSCIKAKKLLETKPEFLKWFVVLEETPWDATSHIDNMENERIPFDLMDTVPAEQLYEAHLEKLRNERKRVEMRRAFKENLETSPFITPGKPWEEARSFIMNEDFYQWLEESVYMDIYGKHQKQIIDKAKEEFQELLLEYSELFYELELDAKPSKEKMGVIQDVLGEEQRFKALQKLQAERDALILKHIHFVYHPTKETCPSCPACVDAKIEHLISSRFIRPSDRNQKNSLSDPNIDRINLVILGKDGLARELANEIRALCTNDDKYVIDGKMYELSLRPIEGNVRLPVNSFQTPTFQPHGCLCLYNSKESLSYVVESIEKSRESTLGRRDNHLVHLPLTLILVNKRGDTSGETLHSLIQQGQQIASKLQCVFLDPASAGIGYGRNINEKQISQVLKGLLDSKRNLNLVSSTASIKDLADVDLRIVMCLMCGDPFSADDILFPVLQSQTCKSSHCGSNNSVLLELPIGLHKKRIELSVLSYHSSFSIRKSRLVHGYIVFYSAKRKASLAMLRAFLCEVQDIIPIQLVALTDGAVDVLDNDLSREQLTEGEEIAQEIDGRFTSIPCSQPQHKLEIFHPFFKDVVEKKNIIEATHMYDNAAEACSTTEEVFNSPRAGSPLCNSNLQDSEEDIEPSYSLFREDTSLPSLSKDHSKLSMELEGNDGLSFIMSNFESKLNNKVPPPVKPKPPVHFEITKGDLSYLDQGHRDGQRKSVSSSPWLPQDGFDPSDYAEPMDAVVKPRNEEENIYSVPHDSTQGKIITIRNINKAQSNGSGNGSDSEMDTSSLERGRKVSIVSKPVLYRTRCTRLGRFASYRTSFSVGSDDELGPIRKKEEDQASQGYKGDNAVIPYETDEDPRRRNILRSLRRNTKKPKPKPRPSITKATWESNYFGVPLTTVVTPEKPIPIFIERCIEYIEATGLSTEGIYRVSGNKSEMESLQRQFDQDHNLDLAEKDFTVNTVAGAMKSFFSELPDPLVPYNMQIDLVEAHKINDREQKLHALKEVLKKFPKENHEVFKYVISHLNKVSHNNKVNLMTSENLSICFWPTLMRPDFSTMDALTATRTYQTIIELFIQQCPFFFYNRPITEPPGARPSSPSAVASTVPFLTSTPVTSQPSPPQSPPPTPQSPMQPLLPSQLQAEHTL
With B1, the binding result is “binds”.
